For two molecules, binding results are on record in article doi:10.1101/2024.10.14.618148.

Assay [1] deals with T1, mouse Slx4(1–758) (mouse) (UniProt Q6P1D7).
T1 sequence: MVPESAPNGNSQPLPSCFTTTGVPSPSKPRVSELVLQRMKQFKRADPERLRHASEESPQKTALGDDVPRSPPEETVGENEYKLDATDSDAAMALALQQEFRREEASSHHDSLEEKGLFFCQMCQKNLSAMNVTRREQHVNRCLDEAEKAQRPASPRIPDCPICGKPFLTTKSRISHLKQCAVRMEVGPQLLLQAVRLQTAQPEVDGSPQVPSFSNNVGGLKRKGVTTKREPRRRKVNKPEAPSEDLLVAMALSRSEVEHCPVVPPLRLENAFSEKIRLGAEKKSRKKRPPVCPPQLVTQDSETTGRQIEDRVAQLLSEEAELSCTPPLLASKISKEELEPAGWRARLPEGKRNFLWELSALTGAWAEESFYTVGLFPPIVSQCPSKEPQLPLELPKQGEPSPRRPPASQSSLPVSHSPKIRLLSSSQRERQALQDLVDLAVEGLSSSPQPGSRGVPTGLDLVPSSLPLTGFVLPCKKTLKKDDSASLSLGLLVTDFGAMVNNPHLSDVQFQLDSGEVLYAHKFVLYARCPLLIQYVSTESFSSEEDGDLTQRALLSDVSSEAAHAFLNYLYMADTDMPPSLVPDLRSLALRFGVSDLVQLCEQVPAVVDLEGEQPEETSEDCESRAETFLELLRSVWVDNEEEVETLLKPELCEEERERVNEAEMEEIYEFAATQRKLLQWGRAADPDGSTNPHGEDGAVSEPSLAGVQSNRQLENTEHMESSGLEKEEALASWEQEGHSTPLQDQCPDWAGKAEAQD
Nature of the assay: co-purification.

Assay [2] concerns the target T2, mouse Xpf (full length) (mouse) (UniProt Q9QZD4).
T2 sequence: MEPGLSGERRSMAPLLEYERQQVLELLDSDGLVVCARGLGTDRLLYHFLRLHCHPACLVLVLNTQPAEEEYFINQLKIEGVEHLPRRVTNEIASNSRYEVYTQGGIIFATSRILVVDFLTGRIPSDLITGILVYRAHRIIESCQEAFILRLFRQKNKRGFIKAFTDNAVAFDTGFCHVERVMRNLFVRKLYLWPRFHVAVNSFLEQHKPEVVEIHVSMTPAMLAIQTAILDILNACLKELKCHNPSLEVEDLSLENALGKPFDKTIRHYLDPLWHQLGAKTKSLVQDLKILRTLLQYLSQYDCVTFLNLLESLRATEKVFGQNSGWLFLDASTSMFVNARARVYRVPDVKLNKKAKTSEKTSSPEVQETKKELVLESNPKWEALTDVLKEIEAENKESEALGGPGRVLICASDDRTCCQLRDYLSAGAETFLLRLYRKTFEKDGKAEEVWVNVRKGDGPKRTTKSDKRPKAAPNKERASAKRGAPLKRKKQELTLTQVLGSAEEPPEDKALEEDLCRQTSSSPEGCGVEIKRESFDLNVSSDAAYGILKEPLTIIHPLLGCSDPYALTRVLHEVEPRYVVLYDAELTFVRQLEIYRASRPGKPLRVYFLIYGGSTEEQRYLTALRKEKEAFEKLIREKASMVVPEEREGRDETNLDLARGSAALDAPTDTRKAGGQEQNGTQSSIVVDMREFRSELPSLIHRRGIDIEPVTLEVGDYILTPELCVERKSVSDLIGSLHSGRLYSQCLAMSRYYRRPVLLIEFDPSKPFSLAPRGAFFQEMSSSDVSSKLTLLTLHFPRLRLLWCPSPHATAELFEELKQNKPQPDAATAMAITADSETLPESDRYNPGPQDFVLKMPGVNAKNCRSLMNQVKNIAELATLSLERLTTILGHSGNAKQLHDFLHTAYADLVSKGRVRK
The assay can be described thus: co-purification.

No constants are given. Whether binding was seen depends on the method and setting. Some entries that bind do so weakly or less than the wild type.

B1: mouse Xpf (full length) (enzyme, UniProt Q9QZD4 1-917)
chain: MEPGLSGERRSMAPLLEYERQQVLELLDSDGLVVCARGLGTDRLLYHFLRLHCHPACLVLVLNTQPAEEEYFINQLKIEGVEHLPRRVTNEIASNSRYEVYTQGGIIFATSRILVVDFLTGRIPSDLITGILVYRAHRIIESCQEAFILRLFRQKNKRGFIKAFTDNAVAFDTGFCHVERVMRNLFVRKLYLWPRFHVAVNSFLEQHKPEVVEIHVSMTPAMLAIQTAILDILNACLKELKCHNPSLEVEDLSLENALGKPFDKTIRHYLDPLWHQLGAKTKSLVQDLKILRTLLQYLSQYDCVTFLNLLESLRATEKVFGQNSGWLFLDASTSMFVNARARVYRVPDVKLNKKAKTSEKTSSPEVQETKKELVLESNPKWEALTDVLKEIEAENKESEALGGPGRVLICASDDRTCCQLRDYLSAGAETFLLRLYRKTFEKDGKAEEVWVNVRKGDGPKRTTKSDKRPKAAPNKERASAKRGAPLKRKKQELTLTQVLGSAEEPPEDKALEEDLCRQTSSSPEGCGVEIKRESFDLNVSSDAAYGILKEPLTIIHPLLGCSDPYALTRVLHEVEPRYVVLYDAELTFVRQLEIYRASRPGKPLRVYFLIYGGSTEEQRYLTALRKEKEAFEKLIREKASMVVPEEREGRDETNLDLARGSAALDAPTDTRKAGGQEQNGTQSSIVVDMREFRSELPSLIHRRGIDIEPVTLEVGDYILTPELCVERKSVSDLIGSLHSGRLYSQCLAMSRYYRRPVLLIEFDPSKPFSLAPRGAFFQEMSSSDVSSKLTLLTLHFPRLRLLWCPSPHATAELFEELKQNKPQPDAATAMAITADSETLPESDRYNPGPQDFVLKMPGVNAKNCRSLMNQVKNIAELATLSLERLTTILGHSGNAKQLHDFLHTAYADLVSKGRVRK
Regarding B1, in assay [1], the binding result was “binds”.

B2: mouse Ercc1 (HT-3C-Full length) (protein, UniProt P07903 1-298)
chain: MDPGKDEESRPQPSGPPTRRKFVIPLEEEEVPCAGVKPLFRSSRNPTIPATSAHVAPQTYAEYAITQPPGGAGATVPTGSEPAAGENPSQTLKTGAKSNSIIVSPRQRGNPVLKFVRNVPWEFGEVIPDYVLGQSTCALFLSLRYHNLHPDYIHERLQSLGKNFALRVLLVQVDVKDPQQALKELAKMCILADCTLVLAWSAEEAGRYLETYKAYEQKPADLLMEKLEQNFLSRATECLTTVKSVNKTDSQTLLATFGSLEQLFTASREDLALCPGLGPQKARRLFEVLHEPFLKVPR
In the case of B2, the binding entry in assay [2] and in assay [1] was “binds” throughout.
